Assay results taken from paper PMC8561924.
No constants are given. Whether binding was seen depends on the method and setting. Binding seen in cells or lysates may run through a third protein. Some entries that bind do so weakly or less than the wild type.

Chains of the proteins cited; added tags and fusions are not shown.
UniProt Q03135: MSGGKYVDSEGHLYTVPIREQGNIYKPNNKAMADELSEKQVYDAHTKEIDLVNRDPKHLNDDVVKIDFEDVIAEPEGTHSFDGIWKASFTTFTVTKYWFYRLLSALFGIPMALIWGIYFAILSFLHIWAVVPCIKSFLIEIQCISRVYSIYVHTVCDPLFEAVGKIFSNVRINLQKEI

Key:
[1] = target: T1, Phospholipase C delta 1 (PLCD1), endogenous (human (endogenous in H1703, H358, 293T)) (UniProt P51178); test: co-IP; PLCD1 IP from H358 cells transfected with empty vector or a plasmid encoding DLC1 848–1091; Fig. 2E
T1 sequence: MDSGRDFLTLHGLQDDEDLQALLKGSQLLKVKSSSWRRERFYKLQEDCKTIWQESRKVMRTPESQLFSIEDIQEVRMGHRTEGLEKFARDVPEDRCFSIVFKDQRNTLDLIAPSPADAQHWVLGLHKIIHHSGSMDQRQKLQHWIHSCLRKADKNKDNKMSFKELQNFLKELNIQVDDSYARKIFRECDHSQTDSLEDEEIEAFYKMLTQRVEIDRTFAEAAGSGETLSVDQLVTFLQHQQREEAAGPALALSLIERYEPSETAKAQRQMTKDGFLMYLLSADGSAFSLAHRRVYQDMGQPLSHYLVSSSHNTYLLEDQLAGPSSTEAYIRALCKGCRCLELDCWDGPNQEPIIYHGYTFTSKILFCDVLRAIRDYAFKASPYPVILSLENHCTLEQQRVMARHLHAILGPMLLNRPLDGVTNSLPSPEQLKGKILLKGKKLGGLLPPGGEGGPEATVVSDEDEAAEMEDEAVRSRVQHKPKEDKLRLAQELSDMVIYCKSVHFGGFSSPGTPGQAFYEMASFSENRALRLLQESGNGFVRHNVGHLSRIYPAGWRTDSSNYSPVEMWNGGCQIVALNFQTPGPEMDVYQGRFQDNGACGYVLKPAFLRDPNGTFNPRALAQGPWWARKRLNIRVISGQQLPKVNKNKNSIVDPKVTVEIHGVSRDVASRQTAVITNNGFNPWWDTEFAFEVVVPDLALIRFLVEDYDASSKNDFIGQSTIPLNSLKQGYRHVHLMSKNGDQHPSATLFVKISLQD

[2] = target: T1, Phospholipase C delta 1 (PLCD1), endogenous (human (endogenous in H1703, H358, 293T)); test: co-IP; IP with PLCD1 or Caveolin-1 antibodies from H358 (DLC1-negative) cells transfected with empty vector or pCDNA DLC1; Fig. 2D
[3] = target: T1, Phospholipase C delta 1 (PLCD1), endogenous (human (endogenous in H1703, H358, 293T)); test: co-IP; endogenous PLCD1, DLC1 and Caveolin-1 in H1703 cell lysate (1X RIPA buffer); Fig. 1A
[4] = target: T1, Phospholipase C delta 1 (PLCD1), endogenous (human (endogenous in H1703, H358, 293T)); test: co-IP; Caveolin-1 IP from H1703 cells transfected with GFP or GFP-DLC1 848–1091; Fig. 2F

- binding [1]: binds
- binding [2]: binds
- binding [3]: binds
- binding [4]: binds
Substance: Caveolin-1, endogenous (from UniProt Q03135 1-178)
